These results are taken from doi:10.1101/355487.

No constants are given. Whether binding was seen depends on the method and setting. In cells and extracts the contact can be indirect. A result given as binding can be weak or reduced; the word gives no strength.

The target in the assay is T1, HJURP (endogenous, Xenopus egg extract) (Xenopus laevis (endogenous in egg extract)).
T1 sequence: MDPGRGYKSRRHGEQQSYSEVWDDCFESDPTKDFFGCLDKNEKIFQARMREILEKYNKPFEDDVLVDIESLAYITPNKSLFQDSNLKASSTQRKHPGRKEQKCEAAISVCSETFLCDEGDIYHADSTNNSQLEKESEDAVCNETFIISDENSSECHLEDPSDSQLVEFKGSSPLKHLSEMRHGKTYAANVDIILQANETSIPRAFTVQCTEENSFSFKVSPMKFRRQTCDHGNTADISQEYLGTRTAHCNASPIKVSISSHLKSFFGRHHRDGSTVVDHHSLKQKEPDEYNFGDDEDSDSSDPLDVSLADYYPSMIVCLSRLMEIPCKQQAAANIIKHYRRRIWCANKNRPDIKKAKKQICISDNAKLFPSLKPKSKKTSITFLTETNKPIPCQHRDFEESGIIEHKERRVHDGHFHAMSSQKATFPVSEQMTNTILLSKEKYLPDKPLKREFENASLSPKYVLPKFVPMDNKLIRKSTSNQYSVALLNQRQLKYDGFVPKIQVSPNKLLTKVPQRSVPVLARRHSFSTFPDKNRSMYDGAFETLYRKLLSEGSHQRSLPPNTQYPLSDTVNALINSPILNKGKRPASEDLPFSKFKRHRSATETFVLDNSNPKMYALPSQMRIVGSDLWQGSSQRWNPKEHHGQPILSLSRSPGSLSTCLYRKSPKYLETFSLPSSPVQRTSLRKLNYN
The assay can be described thus: co-IP.
Turning to “Flag-M18BP1-1^(T166A, SANTA) (Xenopus laevis)”, the binding entry is “binds”. In the case of Flag-M18BP1-1^T166A (Xenopus laevis), the binding result is on record as “binds”. In the case of “Flag-M18BP1-1^WT (full-length Xenopus laevis M18BP1-1)”, the binding result is “binds”.
